{"source": "the supplement of paper PMC12542422", "note": "Counter-ions that a name gives are not always drawn. ± gives the standard deviation of the averaged measurements. The list shows a part of the results. Values are raw readings; no control value is given beside them.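 Ribosome-assembly readouts in HeLa cells were imaged via ENP1 staining, with or without export block, or inducible tagged ribosomal protein reporters. Machine learning classified per-cell signal location versus solvent (DMSO) controls. Hits surpassed the DMSO false-positive mean by five standard deviations and were visually confirmed; three biological replicates.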"}
{"tested_on": "HeLa RPL29-GFP reporter", "assay": "fraction of reporter-positive cells with nuclear (nucleolar or nucleolar/nucleoplasmic) RPL29-GFP (MainHitrate); higher = more cells with nucleolar/nuclear readout signal (for ENP1 -LMB: less RNAPI inhibition; for +LMB ENP1 and RP reporters: stronger nuclear/nucleolar retention, i.e. ribosome biogenesis defect)", "conditions": "concentration: 1 µM; treatment time: 6 h"}
{"smiles": "CC[C@H](C)C(=O)O[C@H]1C[C@H](O)C=C2C=C[C@H](C)[C@H](CC[C@@H](O)C[C@@H](O)CC(=O)O)[C@H]21", "note": "[Pravastatin sodium]", "fraction of reporter-positive cells with nuclear": "0.196 ± 0.045"}
{"smiles": "CO[C@H]1/C=C/O[C@@]2(C)Oc3c(C)c(O)c4c(O)c(c(/C=N/N5CCN(C)CC5)c(O)c4c3C2=O)NC(=O)/C(C)=C\\C=C\\[C@H](C)[C@H](O)[C@@H](C)[C@@H](O)[C@@H](C)[C@H](OC(C)=O)[C@@H]1C", "note": "[Rifampin (Rifadin, Rimactane)]", "fraction of reporter-positive cells with nuclear": "0.221 ± 0.089"}
{"smiles": "CC(=O)O[C@]1(C(C)=O)CC[C@H]2[C@@H]3C[C@H](C)C4=CC(=O)C=C[C@]4(C)[C@@]3(F)[C@@H](O)C[C@@]21C", "note": "[Fluorometholone Acetate]", "fraction of reporter-positive cells with nuclear": "0.238 ± 0.093"}
{"smiles": "CCCCCCCCCCCCCCCCCCCCCCO", "note": "[Docosanol (Abreva)]", "fraction of reporter-positive cells with nuclear": "0.201 ± 0.084"}
{"smiles": "O=c1[nH]c(=O)n(C2CCCO2)cc1F", "note": "(stereo not drawn) [Ftorafur]", "fraction of reporter-positive cells with nuclear": "0.232 ± 0.037"}
{"smiles": "CN(C)CCCOc1nn(Cc2ccccc2)c2ccccc12", "note": "[Benzydamine Hydrochloride]", "fraction of reporter-positive cells with nuclear": "0.21 ± 0.077"}
{"smiles": "O=C(Nc1c(Cl)cncc1Cl)c1ccc(OC(F)F)c(OCC2CC2)c1", "note": "[Roflumilast (Daxas)]", "fraction of reporter-positive cells with nuclear": "0.243 ± 0.069"}
{"smiles": "CCc1c(Cl)c(O)c(Cl)c(O)c1C(=O)O[C@H]1[C@H](O)[C@H](OC)[C@H](OC/C2=C\\C=C\\C[C@H](O)/C(C)=C/[C@H](CC)[C@@H](O[C@@H]3OC(C)(C)[C@@H](OC(=O)C(C)C)[C@H](O)[C@@H]3O)/C(C)=C/C(C)=C/C[C@@H]([C@@H](C)O)OC2=O)O[C@@H]1C", "note": "[Fidaxomicin]", "fraction of reporter-positive cells with nuclear": "0.214 ± 0.091"}
